Results are given in words; binding and its absence hold for the method and conditions named. In cells and extracts the contact can be indirect. Here binding means that the protein was enriched with, or labelled near, the bait; the list need not be complete.

For 1 substance, binding results are on record in article PMC10920805.

The target in this assay is T1, RIOK3 (bait of the mass spectrometry analysis) (UniProt O14730).
T1 sequence: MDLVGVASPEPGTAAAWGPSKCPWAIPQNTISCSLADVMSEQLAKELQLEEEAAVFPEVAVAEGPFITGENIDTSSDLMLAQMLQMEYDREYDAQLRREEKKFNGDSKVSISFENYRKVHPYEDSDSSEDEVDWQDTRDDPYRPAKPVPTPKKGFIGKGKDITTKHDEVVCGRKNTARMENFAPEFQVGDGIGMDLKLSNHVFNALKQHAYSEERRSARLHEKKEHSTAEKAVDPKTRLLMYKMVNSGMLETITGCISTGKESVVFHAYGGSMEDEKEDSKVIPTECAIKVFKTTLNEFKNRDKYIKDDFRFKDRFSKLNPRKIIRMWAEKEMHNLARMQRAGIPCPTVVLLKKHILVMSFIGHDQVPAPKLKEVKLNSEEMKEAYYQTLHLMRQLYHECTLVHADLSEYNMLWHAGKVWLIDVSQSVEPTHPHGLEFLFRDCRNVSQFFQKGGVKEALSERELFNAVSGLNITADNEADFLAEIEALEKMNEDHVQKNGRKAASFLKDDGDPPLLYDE
The assay can be described thus: affinity purification with mass spectrometry; mass spectrometry analysis to identify binding partners of RIOK3; bait, cells and conditions not told.

As for “heat shock protein 90α (from UniProt P07900 1-732)”, the binding result is on record as “binds”.
